Results are given in words; binding and its absence hold for the method and conditions named.
Target: MLL3 (mixed lineage leukemia 3) construct consisting of residues 4690-4911 (Win motif and SET domain), wild type (human) (UniProt Q8NEZ4)
Test: SAXS; small angle x-ray scattering at 4 °C, two protein concentrations; 25 mM Tris pH 7.5, 300 mM NaCl, 1 μM ZnCl2, 5% glycerol, 3 mM DTT; samples passed over S200 size exclusion; molecular weight by the Porod volume method; both purified

- binding: no binding
Substance: MLL3 (mixed lineage leukemia 3) construct consisting of residues 4690-4911 (Win motif and SET domain), wild type (from UniProt Q8NEZ4 4690-4911) (domain or fragment)

Source: article PMC4646236
